Results published in the supplement of paper PMC10849652.
Some of the results follow.

The chains behind the UniProt entries cited, without tags or fusion partners. Where a name states a change or a piece, a line headed by the entry shows the natural chain unless it says otherwise.
UniProt P16989, whole entry, looked up: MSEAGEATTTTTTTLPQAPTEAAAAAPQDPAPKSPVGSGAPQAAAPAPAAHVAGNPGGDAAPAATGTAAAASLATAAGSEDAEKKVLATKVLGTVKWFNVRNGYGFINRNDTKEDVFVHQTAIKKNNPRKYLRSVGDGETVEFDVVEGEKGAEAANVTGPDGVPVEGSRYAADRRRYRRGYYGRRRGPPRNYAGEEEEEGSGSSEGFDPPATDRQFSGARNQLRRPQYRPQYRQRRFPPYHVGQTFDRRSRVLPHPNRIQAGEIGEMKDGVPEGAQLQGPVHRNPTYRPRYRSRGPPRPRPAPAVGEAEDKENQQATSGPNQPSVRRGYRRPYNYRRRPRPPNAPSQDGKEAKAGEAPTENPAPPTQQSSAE
UniProt Q96QU8: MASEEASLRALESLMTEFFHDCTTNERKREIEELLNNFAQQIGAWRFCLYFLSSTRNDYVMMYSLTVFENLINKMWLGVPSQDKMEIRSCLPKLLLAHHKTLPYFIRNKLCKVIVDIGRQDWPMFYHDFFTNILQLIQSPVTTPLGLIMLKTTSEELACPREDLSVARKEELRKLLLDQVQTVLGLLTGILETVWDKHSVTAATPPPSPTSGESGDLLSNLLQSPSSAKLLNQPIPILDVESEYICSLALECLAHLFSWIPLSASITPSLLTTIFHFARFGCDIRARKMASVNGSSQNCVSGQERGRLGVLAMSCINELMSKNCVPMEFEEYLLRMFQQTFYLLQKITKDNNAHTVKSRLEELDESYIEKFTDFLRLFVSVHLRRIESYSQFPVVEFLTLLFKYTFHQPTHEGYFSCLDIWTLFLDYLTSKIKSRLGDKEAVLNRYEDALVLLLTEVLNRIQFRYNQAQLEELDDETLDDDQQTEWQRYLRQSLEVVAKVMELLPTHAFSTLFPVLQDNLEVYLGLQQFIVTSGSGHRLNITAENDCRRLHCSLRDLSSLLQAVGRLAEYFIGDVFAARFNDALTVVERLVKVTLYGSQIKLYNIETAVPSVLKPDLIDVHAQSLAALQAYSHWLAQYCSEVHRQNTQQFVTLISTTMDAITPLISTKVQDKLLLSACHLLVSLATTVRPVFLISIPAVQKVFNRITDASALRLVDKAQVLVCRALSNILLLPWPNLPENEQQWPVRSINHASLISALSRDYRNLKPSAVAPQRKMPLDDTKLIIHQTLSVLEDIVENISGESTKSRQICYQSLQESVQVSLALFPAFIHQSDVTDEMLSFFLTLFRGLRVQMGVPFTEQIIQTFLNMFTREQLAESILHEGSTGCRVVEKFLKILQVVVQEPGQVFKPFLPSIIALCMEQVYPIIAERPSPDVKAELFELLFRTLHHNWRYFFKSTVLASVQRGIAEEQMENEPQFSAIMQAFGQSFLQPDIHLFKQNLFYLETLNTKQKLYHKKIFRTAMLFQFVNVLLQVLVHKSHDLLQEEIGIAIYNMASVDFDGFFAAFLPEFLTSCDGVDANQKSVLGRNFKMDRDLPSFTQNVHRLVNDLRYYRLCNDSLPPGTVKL
UniProt Q8IZN3: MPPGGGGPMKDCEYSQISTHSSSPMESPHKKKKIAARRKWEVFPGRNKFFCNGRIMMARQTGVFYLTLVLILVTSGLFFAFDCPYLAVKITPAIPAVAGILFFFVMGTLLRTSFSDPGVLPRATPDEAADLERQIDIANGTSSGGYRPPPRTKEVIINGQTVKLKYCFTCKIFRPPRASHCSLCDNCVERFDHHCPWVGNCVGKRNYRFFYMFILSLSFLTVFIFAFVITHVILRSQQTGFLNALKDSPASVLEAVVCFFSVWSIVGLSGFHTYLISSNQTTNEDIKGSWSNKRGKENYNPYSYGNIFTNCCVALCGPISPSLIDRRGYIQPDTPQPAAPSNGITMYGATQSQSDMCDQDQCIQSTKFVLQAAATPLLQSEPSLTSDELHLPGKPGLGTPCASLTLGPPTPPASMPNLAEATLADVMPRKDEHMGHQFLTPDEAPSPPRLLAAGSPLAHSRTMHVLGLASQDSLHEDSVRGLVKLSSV
UniProt Q96EC8: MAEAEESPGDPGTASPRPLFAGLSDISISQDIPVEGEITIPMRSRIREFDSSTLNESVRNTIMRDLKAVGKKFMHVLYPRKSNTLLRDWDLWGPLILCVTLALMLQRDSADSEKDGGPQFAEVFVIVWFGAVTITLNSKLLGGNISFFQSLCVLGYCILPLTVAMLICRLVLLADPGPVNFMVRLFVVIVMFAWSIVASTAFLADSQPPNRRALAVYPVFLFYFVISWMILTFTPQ
UniProt Q8IUH5: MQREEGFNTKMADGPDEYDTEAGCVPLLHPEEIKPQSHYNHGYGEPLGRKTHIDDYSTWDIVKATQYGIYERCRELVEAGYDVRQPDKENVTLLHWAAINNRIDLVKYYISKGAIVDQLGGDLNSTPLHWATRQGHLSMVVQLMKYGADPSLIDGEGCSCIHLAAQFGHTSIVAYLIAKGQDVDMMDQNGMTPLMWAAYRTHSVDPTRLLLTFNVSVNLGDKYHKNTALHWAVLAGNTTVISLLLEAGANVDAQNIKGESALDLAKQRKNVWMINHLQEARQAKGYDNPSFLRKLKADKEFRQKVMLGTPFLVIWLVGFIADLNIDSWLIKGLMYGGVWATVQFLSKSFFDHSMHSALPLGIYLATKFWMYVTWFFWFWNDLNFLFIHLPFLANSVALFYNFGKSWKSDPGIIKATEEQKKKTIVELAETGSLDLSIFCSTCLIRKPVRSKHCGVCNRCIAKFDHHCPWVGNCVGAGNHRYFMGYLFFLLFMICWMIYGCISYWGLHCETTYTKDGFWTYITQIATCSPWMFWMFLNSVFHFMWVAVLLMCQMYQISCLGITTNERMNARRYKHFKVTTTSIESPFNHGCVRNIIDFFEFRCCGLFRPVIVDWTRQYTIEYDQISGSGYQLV
UniProt Q96NC0: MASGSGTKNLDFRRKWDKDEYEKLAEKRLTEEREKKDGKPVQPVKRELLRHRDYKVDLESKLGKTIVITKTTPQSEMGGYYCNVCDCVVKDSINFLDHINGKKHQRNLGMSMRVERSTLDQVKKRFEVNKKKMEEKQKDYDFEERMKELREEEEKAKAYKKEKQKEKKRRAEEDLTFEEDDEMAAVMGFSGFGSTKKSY
UniProt Q6FIF0: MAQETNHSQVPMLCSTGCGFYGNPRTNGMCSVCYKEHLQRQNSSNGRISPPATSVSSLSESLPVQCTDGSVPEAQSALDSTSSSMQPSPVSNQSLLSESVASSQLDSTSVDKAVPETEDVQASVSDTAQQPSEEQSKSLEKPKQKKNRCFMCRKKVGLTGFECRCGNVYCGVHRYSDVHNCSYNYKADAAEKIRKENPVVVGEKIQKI
UniProt Q8NF64: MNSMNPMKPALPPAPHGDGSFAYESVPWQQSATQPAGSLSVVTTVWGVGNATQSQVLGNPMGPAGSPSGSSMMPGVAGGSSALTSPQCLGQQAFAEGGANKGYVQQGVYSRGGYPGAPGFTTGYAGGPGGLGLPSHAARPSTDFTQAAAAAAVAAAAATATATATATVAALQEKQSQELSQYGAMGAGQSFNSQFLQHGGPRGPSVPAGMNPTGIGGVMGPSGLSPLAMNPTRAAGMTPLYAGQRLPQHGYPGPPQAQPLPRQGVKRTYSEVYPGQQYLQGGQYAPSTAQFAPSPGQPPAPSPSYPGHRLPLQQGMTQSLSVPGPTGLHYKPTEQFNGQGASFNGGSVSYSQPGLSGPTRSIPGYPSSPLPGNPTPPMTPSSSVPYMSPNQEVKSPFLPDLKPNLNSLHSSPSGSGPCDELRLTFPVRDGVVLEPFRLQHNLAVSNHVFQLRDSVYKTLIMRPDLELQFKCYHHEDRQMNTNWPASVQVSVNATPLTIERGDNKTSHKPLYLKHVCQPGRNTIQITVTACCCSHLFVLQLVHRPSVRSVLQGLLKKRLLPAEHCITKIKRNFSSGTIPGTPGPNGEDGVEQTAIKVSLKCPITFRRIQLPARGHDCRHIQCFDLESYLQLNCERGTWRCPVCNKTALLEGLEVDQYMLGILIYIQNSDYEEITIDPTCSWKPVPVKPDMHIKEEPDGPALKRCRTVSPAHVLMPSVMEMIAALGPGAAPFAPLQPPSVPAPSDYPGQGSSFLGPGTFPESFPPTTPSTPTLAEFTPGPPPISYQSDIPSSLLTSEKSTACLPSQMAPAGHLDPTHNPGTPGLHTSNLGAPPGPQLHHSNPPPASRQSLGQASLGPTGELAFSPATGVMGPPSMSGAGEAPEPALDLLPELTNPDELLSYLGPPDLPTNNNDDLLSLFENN
UniProt O43298: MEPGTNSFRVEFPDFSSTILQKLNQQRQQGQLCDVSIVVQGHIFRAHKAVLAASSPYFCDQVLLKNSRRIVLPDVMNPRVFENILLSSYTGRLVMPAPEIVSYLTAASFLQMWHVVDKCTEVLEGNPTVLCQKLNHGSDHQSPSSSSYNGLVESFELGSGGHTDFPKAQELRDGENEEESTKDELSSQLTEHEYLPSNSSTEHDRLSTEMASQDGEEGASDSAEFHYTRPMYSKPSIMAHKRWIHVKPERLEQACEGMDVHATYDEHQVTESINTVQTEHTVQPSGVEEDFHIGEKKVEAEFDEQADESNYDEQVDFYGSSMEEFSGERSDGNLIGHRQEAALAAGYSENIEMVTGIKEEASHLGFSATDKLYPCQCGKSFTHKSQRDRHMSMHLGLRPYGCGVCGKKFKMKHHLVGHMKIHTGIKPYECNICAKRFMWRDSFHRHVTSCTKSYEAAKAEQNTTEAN
UniProt P67809, whole entry, looked up: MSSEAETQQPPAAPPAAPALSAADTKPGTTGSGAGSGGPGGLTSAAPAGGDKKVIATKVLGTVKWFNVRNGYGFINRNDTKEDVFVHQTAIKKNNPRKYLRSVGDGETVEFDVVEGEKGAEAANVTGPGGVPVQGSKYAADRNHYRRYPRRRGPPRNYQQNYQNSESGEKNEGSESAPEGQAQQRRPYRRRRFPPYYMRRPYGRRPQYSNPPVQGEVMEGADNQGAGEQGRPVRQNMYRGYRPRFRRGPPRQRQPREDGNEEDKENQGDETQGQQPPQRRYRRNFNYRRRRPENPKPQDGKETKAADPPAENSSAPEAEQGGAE
UniProt O75844: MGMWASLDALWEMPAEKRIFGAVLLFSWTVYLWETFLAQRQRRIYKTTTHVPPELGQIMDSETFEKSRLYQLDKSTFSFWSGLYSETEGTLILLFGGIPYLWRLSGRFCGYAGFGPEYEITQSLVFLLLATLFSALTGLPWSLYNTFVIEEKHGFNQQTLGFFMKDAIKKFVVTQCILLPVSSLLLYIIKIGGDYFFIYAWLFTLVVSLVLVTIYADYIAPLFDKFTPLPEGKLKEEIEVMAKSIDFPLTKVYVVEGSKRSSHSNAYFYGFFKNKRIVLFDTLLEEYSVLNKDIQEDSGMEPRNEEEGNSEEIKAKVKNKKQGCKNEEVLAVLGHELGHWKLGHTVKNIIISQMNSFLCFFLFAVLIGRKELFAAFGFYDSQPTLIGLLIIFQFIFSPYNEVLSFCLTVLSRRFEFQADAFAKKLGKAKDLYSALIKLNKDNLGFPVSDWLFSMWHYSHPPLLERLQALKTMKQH
UniProt Q8IY57: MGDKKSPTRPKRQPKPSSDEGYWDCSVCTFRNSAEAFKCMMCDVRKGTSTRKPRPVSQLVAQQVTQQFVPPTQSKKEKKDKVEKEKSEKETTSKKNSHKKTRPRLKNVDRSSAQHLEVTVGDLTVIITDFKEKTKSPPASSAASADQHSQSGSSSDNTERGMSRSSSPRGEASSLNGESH
UniProt Q13426: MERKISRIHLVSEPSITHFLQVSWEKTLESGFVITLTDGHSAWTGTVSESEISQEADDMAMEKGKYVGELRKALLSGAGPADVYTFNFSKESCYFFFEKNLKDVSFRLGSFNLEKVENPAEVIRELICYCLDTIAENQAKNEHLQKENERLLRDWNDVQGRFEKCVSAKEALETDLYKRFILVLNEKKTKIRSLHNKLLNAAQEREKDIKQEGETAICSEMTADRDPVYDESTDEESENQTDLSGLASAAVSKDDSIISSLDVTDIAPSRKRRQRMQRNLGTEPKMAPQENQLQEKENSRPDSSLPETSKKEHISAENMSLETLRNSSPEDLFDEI
UniProt O95365: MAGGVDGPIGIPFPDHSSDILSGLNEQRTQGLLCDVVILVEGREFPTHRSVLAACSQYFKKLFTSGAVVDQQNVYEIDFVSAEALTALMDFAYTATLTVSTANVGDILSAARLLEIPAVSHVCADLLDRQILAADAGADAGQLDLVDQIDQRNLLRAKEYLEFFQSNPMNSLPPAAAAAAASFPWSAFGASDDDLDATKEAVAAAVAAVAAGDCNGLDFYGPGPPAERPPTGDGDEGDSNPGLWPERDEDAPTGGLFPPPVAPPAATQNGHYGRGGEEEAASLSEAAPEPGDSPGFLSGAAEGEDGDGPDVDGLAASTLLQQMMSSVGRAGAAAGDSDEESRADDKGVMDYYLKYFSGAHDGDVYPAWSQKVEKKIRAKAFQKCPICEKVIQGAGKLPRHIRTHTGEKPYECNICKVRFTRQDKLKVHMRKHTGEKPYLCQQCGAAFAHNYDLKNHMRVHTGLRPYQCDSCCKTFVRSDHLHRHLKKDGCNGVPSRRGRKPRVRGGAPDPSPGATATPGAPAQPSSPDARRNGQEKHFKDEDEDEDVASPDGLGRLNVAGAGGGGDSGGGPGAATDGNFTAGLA

Tests used:
Assay in all cases: log2 fold change, soluble protein after heating vs DMSO (PISA); higher = thermal stabilisation; K562 cells, 10 uM, 30 min; active = over 0.2 and 3.5 SD of the protein, either way, in both replicates (recomputed)
[1] = compound: CS(=O)(=O)c1ccc(-c2cnc(N)c(C(=O)Nc3ccccc3)n2)cc1
Procedure, shortened: (§1)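 K562 cells at 2×10^6 cells/mL were treated with 10 μM compound for 30 min. Aliquots were heated for 3 min across 48°C-58°C, pooled, and extracted in PBS with 0.5% NP-40 at 4°C; soluble protein was the supernatant after 21,000xg for 90 min. Soluble protein was quantified by TMTpro 16plex LC-MS/MS with channel sums equalised, and reported as log2 fold change in thermal stability against DMSO controls, with values from duplicates.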

crizotinib = compound: C[C@@H](Oc1cc(-c2cnn(C3CCNCC3)c2)cnc1N)c1c(Cl)ccc(F)c1Cl [crizotinib]
Procedure, shortened: as §1

[2] = compound: C[C@@H]1COCCN1C2=NC(=NC(=C2)C3(CC3)S(=O)(=O)C)C4=C5C=CNC5=CC=C4
Procedure, shortened: as §1

[3] = compound: C[C@H](C1=CC=C(C=C1)C(=O)NC2=C3C=CNC3=NC=C2)N
Procedure, shortened: as §1

gandotinib = compound: Cc1cc(Nc2cc(CN3CCOCC3)c3nc(C)c(Cc4ccc(Cl)cc4F)n3n2)n[nH]1 [gandotinib]
Procedure, shortened: as §1

tozasertib = compound: Cc1cc(Nc2cc(N3CCN(C)CC3)nc(Sc3ccc(NC(=O)C4CC4)cc3)n2)n[nH]1 [tozasertib]
Procedure, shortened: as §1

doramapimod = compound: Cc1ccc(-n2nc(C(C)(C)C)cc2NC(=O)Nc2ccc(OCCN3CCOCC3)c3ccccc23)cc1 [doramapimod]
Procedure, shortened: as §1

ispinesib = compound: Cc1ccc(C(=O)N(CCCN)[C@@H](c2nc3cc(Cl)ccc3c(=O)n2Cc2ccccc2)C(C)C)cc1 [ispinesib]
Procedure, shortened: as §1

[4] = compound: Cc1cc(SCc2sc(-c3ccc(C(F)(F)F)cc3)nc2C)ccc1OCC(=O)O
Procedure, shortened: as §1

duvelisib = compound: C[C@H](Nc1ncnc2nc[nH]c12)c1cc2cccc(Cl)c2c(=O)n1-c1ccccc1 [duvelisib]
Procedure, shortened: as §1

Target | log2 fold change [1] | log2 fold change (crizotinib) | log2 fold change [2] | log2 fold change [3] | log2 fold change (gandotinib) | log2 fold change (tozasertib) | log2 fold change (doramapimod) | log2 fold change (ispinesib) | log2 fold change [4] | log2 fold change (duvelisib)
ZMYM4 (UniProt Q5VZL5) | inactive: -0.315 | inactive: -0.019 | inactive: -0.013 | inactive: 0.277 | inactive: 0.083 | inactive: -0.196 | inactive: 0.197 | inactive: 0.049 | – | –
ZMYM3 (UniProt Q14202) | inactive: 0.023 | inactive: 0.04 | inactive: -0.058 | inactive: 0.045 | inactive: 0.051 | – | inactive: -0.009 | inactive: -0.013 | inactive: -0.011 | –
YBX3 (UniProt P16989) | inactive: -0.1 | inactive: 0.088 | inactive: -0.346 | inactive: 0.2 | inactive: 0.34 | inactive: 0.014 | inactive: 0.093 | inactive: -0.117 | inactive: -0.002 | inactive: -0.105
XPO6 (UniProt Q96QU8) | inactive: -0.033 | inactive: 0.177 | inactive: -0.277 | inactive: 0.031 | inactive: 0.104 | – | inactive: 0.179 | inactive: 0 | inactive: 0.027 | –
ZDHHC14 (UniProt Q8IZN3) | inactive: -0.001 | inactive: -0.029 | inactive: 0.016 | inactive: -0.136 | – | inactive: 0.025 | inactive: -0.004 | inactive: -0.005 | inactive: -0.043 | inactive: 0.199
ZC3H14 (UniProt Q6PJT7) | inactive: 0 | inactive: -0.093 | inactive: -0.066 | inactive: 0.015 | inactive: -0.052 | inactive: 0.034 | inactive: 0.008 | inactive: 0.009 | inactive: 0.091 | inactive: -0.05
YIPF6 (UniProt Q96EC8) | inactive: 0.199 | inactive: -0.081 | inactive: 0.076 | inactive: -0.013 | inactive: -0.019 | – | inactive: -0.036 | inactive: 0.02 | inactive: -0.175 | –
ZMIZ1 (UniProt Q9ULJ6) | inactive: 0.005 | inactive: 0 | inactive: 0.017 | inactive: 0.022 | inactive: -0.028 | inactive: -0.028 | inactive: -0.026 | inactive: 0.014 | inactive: 0.038 | inactive: 0.024
XRCC6 (UniProt P12956) | inactive: 0.013 | inactive: -0.064 | inactive: 0.088 | inactive: -0.042 | inactive: -0.149 | – | inactive: -0.05 | inactive: -0.039 | inactive: 0.091 | –
ZDHHC17 (UniProt Q8IUH5) | inactive: -0.005 | inactive: -0.064 | inactive: 0.005 | inactive: -0.03 | inactive: 0.052 | – | active: 0.264 | inactive: 0.023 | inactive: -0.04 | –
ZMAT2 (UniProt Q96NC0) | inactive: -0.127 | inactive: 0.098 | inactive: -0.022 | inactive: -0.012 | inactive: -0.014 | – | inactive: -0.024 | inactive: 0.042 | inactive: -0.048 | –
YBX3 isoform 2 (UniProt P16989) | inactive: -0.161 | inactive: 0.11 | inactive: -0.51 | inactive: 0.201 | – | inactive: 0.018 | inactive: 0.098 | inactive: -0.149 | inactive: -0.262 | inactive: -0.343
XPO1 (UniProt O14980) | inactive: -0.016 | inactive: -0.138 | inactive: 0.089 | inactive: 0.006 | inactive: -0.223 | – | inactive: -0.034 | inactive: -0.081 | inactive: 0.094 | –
YIPF5 isoform 3 (UniProt Q969M3) | inactive: -0.093 | inactive: 0.081 | inactive: 0.019 | inactive: -0.077 | inactive: -0.1 | – | inactive: 0.041 | inactive: 0.08 | inactive: 0.015 | –
YAE1 (UniProt Q9NRH1) | inactive: 0.011 | inactive: -0.018 | inactive: -0.039 | inactive: 0.1 | inactive: 0.007 | – | inactive: -0.033 | inactive: 0.063 | inactive: 0.021 | –
ZFAND6 (UniProt Q6FIF0) | inactive: -0.036 | inactive: -0.041 | inactive: 0.127 | inactive: 0.031 | inactive: -0.004 | – | inactive: 0.017 | inactive: -0.082 | inactive: -0.038 | –
ZC3HC1 (UniProt Q86WB0) | inactive: 0.066 | inactive: -0.109 | inactive: 0.119 | inactive: -0.213 | inactive: -0.157 | – | inactive: -0.056 | inactive: -0.027 | inactive: 0.199 | –

Reprinted at random: 2 records from the list, in no set order.
Target | log2 fold change [1] | log2 fold change (crizotinib) | log2 fold change [2] | log2 fold change [3] | log2 fold change (gandotinib) | log2 fold change (tozasertib) | log2 fold change (doramapimod) | log2 fold change (ispinesib) | log2 fold change [4] | log2 fold change (duvelisib)
ZFAND6 (UniProt Q6FIF0) | inactive: -0.036 | inactive: -0.041 | inactive: 0.127 | inactive: 0.031 | inactive: -0.004 | – | inactive: 0.017 | inactive: -0.082 | inactive: -0.038 | –
ZMYM4 (UniProt Q5VZL5) | inactive: -0.315 | inactive: -0.019 | inactive: -0.013 | inactive: 0.277 | inactive: 0.083 | inactive: -0.196 | inactive: 0.197 | inactive: 0.049 | – | –

The list continues:

Target | log2 fold change [1] | log2 fold change (crizotinib) | log2 fold change [2] | log2 fold change [3] | log2 fold change (gandotinib) | log2 fold change (tozasertib) | log2 fold change (doramapimod) | log2 fold change (ispinesib) | log2 fold change [4] | log2 fold change (duvelisib)
ZMIZ2 (UniProt Q8NF64) | inactive: 0.022 | inactive: 0.116 | inactive: 0.073 | inactive: -0.012 | inactive: 0.063 | inactive: -0.076 | inactive: -0.009 | inactive: 0.02 | inactive: -0.038 | inactive: 0.087
XPO5 (UniProt Q9HAV4) | inactive: -0.008 | inactive: -0.052 | inactive: 0.021 | inactive: -0.026 | inactive: -0.192 | – | inactive: -0.043 | inactive: -0.079 | inactive: 0.064 | –
XPNPEP3 (UniProt Q9NQH7) | inactive: 0.06 | inactive: -0.013 | inactive: 0.011 | inactive: -0.001 | inactive: -0.033 | – | inactive: 0.065 | inactive: -0.046 | inactive: 0.034 | –
ZDHHC3 isoform 2 (UniProt Q9NYG2) | inactive: 0.04 | inactive: -0.066 | inactive: -0.002 | inactive: -0.047 | inactive: -0.107 | inactive: -0.018 | inactive: 0.017 | inactive: -0.062 | inactive: 0.004 | inactive: 0.07
ZBTB43 (UniProt O43298) | inactive: 0.021 | inactive: -0.077 | inactive: -0.088 | inactive: -0.013 | inactive: 0.043 | – | inactive: -0.029 | inactive: 0.164 | inactive: 0.041 | –
ZC3H15 (UniProt Q8WU90) | inactive: 0.054 | inactive: -0.066 | inactive: -0.075 | inactive: 0.034 | inactive: 0.073 | inactive: -0.026 | inactive: 0.054 | inactive: -0.011 | inactive: -0.017 | inactive: -0.028
YBX1 (UniProt P67809) | inactive: -0.101 | inactive: 0 | inactive: -0.368 | inactive: 0.28 | inactive: 0.334 | – | inactive: 0.047 | inactive: -0.093 | inactive: -0.024 | –
ZFP91 (UniProt Q96JP5) | inactive: -0.072 | inactive: 0 | inactive: -0.124 | inactive: 0.154 | inactive: 0.214 | – | inactive: 0.109 | inactive: -0.227 | inactive: 0.042 | –
ZNF207 isoform 4 (UniProt O43670) | inactive: -0.006 | inactive: -0.019 | inactive: 0.005 | inactive: -0.084 | inactive: 0.117 | inactive: 0.002 | inactive: -0.027 | inactive: 0.049 | inactive: -0.01 | inactive: -0.058
ZMPSTE24 (UniProt O75844) | inactive: -0.018 | inactive: 0.1 | inactive: -0.033 | inactive: -0.015 | inactive: -0.003 | inactive: -0.004 | inactive: 0.008 | inactive: 0.078 | inactive: -0.025 | inactive: 0.044
YAF2 isoform 5 (UniProt Q8IY57) | inactive: -0.033 | inactive: -0.132 | inactive: -0.242 | inactive: 0.059 | inactive: -0.147 | inactive: 0.065 | inactive: 0.106 | inactive: 0.162 | inactive: 0.044 | inactive: -0.148
ZER1 (UniProt Q7Z7L7) | inactive: 0.034 | inactive: 0.084 | inactive: 0.107 | inactive: -0.055 | inactive: -0.269 | – | inactive: -0.163 | inactive: 0.153 | inactive: 0.055 | –
ZMYM1 (UniProt Q5SVZ6) | inactive: 0.026 | inactive: -0.017 | inactive: 0.029 | inactive: 0.016 | inactive: 0.305 | – | inactive: 0.003 | inactive: -0.122 | inactive: 0.032 | –
XRCC4 (UniProt Q13426) | inactive: 0.015 | inactive: 0.047 | inactive: 0.05 | inactive: -0.043 | inactive: -0.08 | inactive: 0.009 | inactive: -0.009 | inactive: -0.005 | inactive: 0.007 | inactive: 0.021
ZBTB7A (UniProt O95365) | inactive: -0.091 | inactive: -0.046 | inactive: 0.515 | inactive: -0.092 | – | inactive: 0.54 | inactive: 0.221 | inactive: 0.033 | inactive: -0.127 | inactive: 0.018
ZFYVE9 (UniProt O95405) | inactive: 0.017 | inactive: -0.149 | inactive: 0.002 | inactive: -0.032 | – | inactive: 0.095 | inactive: -0.063 | inactive: -0.087 | inactive: 0.082 | inactive: -0.134
